According to the RNAGym collection of RNA variant scans (doi:10.1126/science.aae0568):
Variants at the background level are over-represented here.

B1: tRNA (parent)
chain: GUUCCGUUGGCGUAAUGGUAACGCGUCUCCCUCCUAAGGAGAAGACUGCGGGUUCGAGUCCCGUACGGAACG

Variants of: B1
Assay: yeast fitness relative to wild type (ratio to wild type); higher = fitter; tRNA-Arg(CCU), competitive growth, 37 C, YPD
How it was run: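 For this measurement, the tRNA-Arg(CCU) gene was varied by chemical synthesis at a 3% per-site mutation rate across 69 sites, and each variant was placed at the native genomic locus in Saccharomyces cerevisiae. The pooled strains went through a 24-hour competition in YPD at 37°C in six parallel replicates, with amplicons from start and end populations read by 100-nucleotide paired-end sequencing. Darwinian fitness relative to wild type followed from the change in each genotype's frequency. Genotypes needed ≥ 100 starting reads, and estimates < 0.5 were set to 0.5.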
In the case of C22U G38C A43C C61A, the yeast fitness is reported as at most 0.5.
C22U G39A C49G showed a yeast fitness of at most 0.5.
In the case of C22U G44A C46G G51A C66G, the yeast fitness is reported as at most 0.5.
With C22U U28C C29G C33A G68C the yeast fitness was at most 0.5.
For C22U U35C A36C, the yeast fitness was at most 0.5.
With C22U U47A C61U the yeast fitness was at most 0.5.
Variant G23A A36C C55G has a yeast fitness of at most 0.5.
Work on G23A C27U G52C A65U G67C yielded a yeast fitness of at most 0.5.
G23A C29A C31U A42G A43C U54G gave a yeast fitness of at most 0.5.
With G23A C29U C60U the yeast fitness was at most 0.5.
Work on G23A C30G U47C C60G yielded a yeast fitness of at most 0.5.
G23A C55G C60A showed a yeast fitness of at most 0.5.
Variant G23A C55U A69U has a yeast fitness of at most 0.5.
Work on G23A G38A G67C yielded a yeast fitness of at most 0.5.
In the case of G23A G39C A40U G68C, the yeast fitness is reported as at most 0.5.
With G23A G48A G58A the yeast fitness was at most 0.5.
Variant G23A U26A C30U A40U G44A A69U has a yeast fitness of at most 0.5.
G23A U32G G58A gave a yeast fitness of at most 0.5.
Work on G23A U47A U64A yielded a yeast fitness of at most 0.5.
Work on G23C A42U A57U G58C yielded a yeast fitness of at most 0.5.
Work on G23C A65U A70G yielded a yeast fitness of at most 0.5.
In the case of G23C U26C C46G G63A, the yeast fitness is reported as at most 0.5.
G23U A36C C46U G50C gave a yeast fitness of at most 0.5.
For G23U C27A C46A C49A C55A, the yeast fitness was at most 0.5.
C24A A36U C61A A69C gave a yeast fitness of at most 0.5.
With C24A A43U A57G the yeast fitness was at most 0.5.
Work on C24A A45G C61G C62U yielded a yeast fitness of 0.543.
C24A A65U showed a yeast fitness of 0.549.
Variant C24A C27G G56A has a yeast fitness of at most 0.5.
Variant C24A C29U G63C has a yeast fitness of at most 0.5.
C24A C33U showed a yeast fitness of 0.601.
In the case of C24A C34G A40U C61G, the yeast fitness is reported as at most 0.5.
In the case of C24A C61U, the yeast fitness is reported as 0.718.
C24A G25C U47A showed a yeast fitness of at most 0.5.
With C24A G52C C55A the yeast fitness was at most 0.5.
In the case of C24G A36G U64C, the yeast fitness is reported as at most 0.5.
Work on C24G A37U C66A yielded a yeast fitness of at most 0.5.
With C24G A40C A42C the yeast fitness was at most 0.5.
With C24G A40U A57U G63A the yeast fitness was at most 0.5.
In the case of C24G A43G C49U C55G A57G, the yeast fitness is reported as at most 0.5.
Work on C24G A57G A65C A70C yielded a yeast fitness of at most 0.5.
Variant C24G A57U A70G has a yeast fitness of at most 0.5.
C24G C27A C31U A43G C61U A65C showed a yeast fitness of at most 0.5.
C24G C27U C33U G50C G68A gave a yeast fitness of at most 0.5.
Work on C24G C27U C55G yielded a yeast fitness of at most 0.5.
Variant C24G C27U G58C A69U has a yeast fitness of at most 0.5.
For C24G C29G A37G G52A C62U, the yeast fitness was at most 0.5.
Work on C24G C30A C60G yielded a yeast fitness of at most 0.5.
C24G C30U G39A G44C gave a yeast fitness of at most 0.5.
With C24G C31A A69C the yeast fitness was at most 0.5.
Work on C24G C31A C60A yielded a yeast fitness of at most 0.5.
C24G C33G C55G A70C showed a yeast fitness of at most 0.5.
Variant C24G C46A has a yeast fitness of 0.937.
With C24G G25C C30G U32C A57U A65U the yeast fitness was at most 0.5.
Variant C24G G41A C46U A65G has a yeast fitness of at most 0.5.
In the case of C24G G50A C55U A69C A70U, the yeast fitness is reported as at most 0.5.
Work on C24G U26A G41C A69C yielded a yeast fitness of at most 0.5.
With C24G U54C the yeast fitness was at most 0.5.
Variant C24U A36C C49A has a yeast fitness of at most 0.5.
Work on C24U A36G A43C G44A C66U yielded a yeast fitness of at most 0.5.
For C24U A36G A45C A57U C61G, the yeast fitness was at most 0.5.
Variant C24U A36G C46A U47C C55A G67A has a yeast fitness of at most 0.5.
C24U A36U C66A gave a yeast fitness of at most 0.5.
In the case of C24U A37C A40G U54A C61U, the yeast fitness is reported as at most 0.5.
C24U C29U C55U gave a yeast fitness of at most 0.5.
With C24U C31G C46U G63A the yeast fitness was at most 0.5.
C24U C31G C55A A57U U59C C60U showed a yeast fitness of at most 0.5.
Work on C24U C31G U54C C62G yielded a yeast fitness of at most 0.5.
Work on C24U C31U C49U A70C yielded a yeast fitness of 0.643.
Work on C24U C31U C61A yielded a yeast fitness of at most 0.5.
In the case of C24U C46G A65U, the yeast fitness is reported as 0.782.
Work on C24U G39A A65U yielded a yeast fitness of 0.528.
Work on C24U G39C G68C A70G yielded a yeast fitness of at most 0.5.
In the case of C24U G50C G56C, the yeast fitness is reported as at most 0.5.
In the case of C24U G52A A70U, the yeast fitness is reported as at most 0.5.
With C24U G52C the yeast fitness was 0.702.
C24U U26A U28G G51A showed a yeast fitness of at most 0.5.
With C24U U26A U28G U54G G63A the yeast fitness was at most 0.5.
C24U U35A A40G C49U gave a yeast fitness of at most 0.5.
G25A A42G G44C C49G A70U showed a yeast fitness of at most 0.5.
With G25A C29A U64C the yeast fitness was at most 0.5.
Variant G25A C34G C49U U54C C60G has a yeast fitness of at most 0.5.
G25A C61A C66A showed a yeast fitness of at most 0.5.
Variant G25A U32A U54G G56A has a yeast fitness of at most 0.5.
In the case of G25C A37U G63A, the yeast fitness is reported as at most 0.5.
With G25C A40C C66A the yeast fitness was at most 0.5.
G25C C27G C60G G63C showed a yeast fitness of at most 0.5.
With G25C C29U C34G the yeast fitness was at most 0.5.
G25C C30U C61G showed a yeast fitness of 0.526.
G25C C31A C55G showed a yeast fitness of at most 0.5.
Work on G25C C31U U32A A65G yielded a yeast fitness of at most 0.5.
For G25C G48A G68U, the yeast fitness was at most 0.5.
G25C U28C G48C C49U showed a yeast fitness of at most 0.5.
With G25U G44C G51A G67C G68A the yeast fitness was at most 0.5.
For U26A A36U, the yeast fitness was 0.606.
U26A A65U C66A gave a yeast fitness of at most 0.5.
Variant U26A C30U C62U C66A has a yeast fitness of at most 0.5.
U26A C33A A45C showed a yeast fitness of 0.55.
Variant U26A C33U U53C has a yeast fitness of 0.54.
For U26A G52A, the yeast fitness was 0.666.
U26A G68C A69G showed a yeast fitness of 0.572.
For U26A U32A C62U G67C, the yeast fitness was at most 0.5.
In the case of U26C A37G C49G G63C G68C, the yeast fitness is reported as at most 0.5.
With U26C C27G C33G A37U G41A A57G C62G the yeast fitness was at most 0.5.
In the case of U26C C29A G51C, the yeast fitness is reported as at most 0.5.
Variant U26C C30G G52A has a yeast fitness of at most 0.5.
In the case of U26C C30U G51A C55U, the yeast fitness is reported as at most 0.5.
U26C C33U G52C showed a yeast fitness of 0.609.
U26C C46U C62U showed a yeast fitness of 0.718.
Variant U26C G63A has a yeast fitness of 0.916.
Work on U26C U28A G58A G68A yielded a yeast fitness of at most 0.5.
Variant U26C U32A G44C has a yeast fitness of at most 0.5.
U26G A45G C46U U53G gave a yeast fitness of 0.599.
Variant U26G A57G G68C has a yeast fitness of at most 0.5.
With U26G C27U G56A A65C the yeast fitness was at most 0.5.
In the case of U26G U32C A40C G48C A65U, the yeast fitness is reported as at most 0.5.
For C27A A45U G67C, the yeast fitness was at most 0.5.
In the case of C27A A57C C61U G63A, the yeast fitness is reported as at most 0.5.
For C27A C30G C49U G56C, the yeast fitness was at most 0.5.
C27A C31G C60G gave a yeast fitness of 0.537.
Variant C27A G38C A40U C62U has a yeast fitness of at most 0.5.
C27A G56C showed a yeast fitness of 0.627.
Variant C27A U35A G48A U59C has a yeast fitness of 0.567.
In the case of C27G A42C G63C, the yeast fitness is reported as at most 0.5.
For C27G A43C C60G, the yeast fitness was at most 0.5.
C27G A57U G68U gave a yeast fitness of at most 0.5.
With C27G C31G C33U G58C C60U C66G the yeast fitness was at most 0.5.
For C27G C31U C49G U59A, the yeast fitness was at most 0.5.
In the case of C27G C34A, the yeast fitness is reported as at most 0.5.
Variant C27G G48C A65C has a yeast fitness of at most 0.5.
C27G G52C U54C showed a yeast fitness of at most 0.5.
Work on C27G U47G G48A yielded a yeast fitness of at most 0.5.
With C27G U54A the yeast fitness was 0.544.
Work on C27U A42U C49G yielded a yeast fitness of at most 0.5.
Work on C27U C29G A42C A43G A57C yielded a yeast fitness of at most 0.5.
C27U C30A G51A showed a yeast fitness of at most 0.5.
In the case of C27U C33U A36U C66A, the yeast fitness is reported as at most 0.5.
C27U G38A C66G gave a yeast fitness of at most 0.5.
Work on C27U G63C G67U yielded a yeast fitness of at most 0.5.
With C27U U32A the yeast fitness was 0.993.
With U28A C29G G51A G56A G68A the yeast fitness was at most 0.5.
For U28A G48C G52A, the yeast fitness was at most 0.5.
Variant U28A U64G has a yeast fitness of 0.709.
For U28C A45U C55A C66A, the yeast fitness was at most 0.5.
With U28C C29U A57G A65G the yeast fitness was at most 0.5.
In the case of U28C C33G G38A U64G, the yeast fitness is reported as at most 0.5.
For U28C C34U, the yeast fitness was 0.71.
Work on U28C G39C G44C C46U yielded a yeast fitness of at most 0.5.
Variant U28C U32C C33U G56A has a yeast fitness of at most 0.5.
U28G A69C A70C gave a yeast fitness of at most 0.5.
In the case of U28G C30G, the yeast fitness is reported as at most 0.5.
Work on U28G C33A A45G yielded a yeast fitness of at most 0.5.
U28G C55A C60U gave a yeast fitness of at most 0.5.
Work on U28G C60G C61G yielded a yeast fitness of at most 0.5.
U28G C61A showed a yeast fitness of 0.561.
U28G G38C A40G showed a yeast fitness of 0.546.
Variant C29A A36G G48A C66U has a yeast fitness of at most 0.5.
Work on C29A A36U G50C C55G C61G yielded a yeast fitness of at most 0.5.
Variant C29A A37G C49U has a yeast fitness of at most 0.5.
Work on C29A A43U U64A yielded a yeast fitness of at most 0.5.
C29A C30U A37C C66U gave a yeast fitness of at most 0.5.
In the case of C29A C31U A43C G44C A65U, the yeast fitness is reported as at most 0.5.
C29A C60G G63A showed a yeast fitness of at most 0.5.
Work on C29A G39C U54C C60G yielded a yeast fitness of at most 0.5.
In the case of C29A G41A A43C C66U, the yeast fitness is reported as at most 0.5.
C29G C30G A57U G58A A70G gave a yeast fitness of at most 0.5.
C29G C30U G58A gave a yeast fitness of 0.608.
